The values below come from the supplement of paper PMC7666118.

Protein sequences, listed by entry. Tags and fused reporters are not part of them. Lines headed by an entry give the natural chain unless they say otherwise; changes in a name come on top.
UniProt P09110: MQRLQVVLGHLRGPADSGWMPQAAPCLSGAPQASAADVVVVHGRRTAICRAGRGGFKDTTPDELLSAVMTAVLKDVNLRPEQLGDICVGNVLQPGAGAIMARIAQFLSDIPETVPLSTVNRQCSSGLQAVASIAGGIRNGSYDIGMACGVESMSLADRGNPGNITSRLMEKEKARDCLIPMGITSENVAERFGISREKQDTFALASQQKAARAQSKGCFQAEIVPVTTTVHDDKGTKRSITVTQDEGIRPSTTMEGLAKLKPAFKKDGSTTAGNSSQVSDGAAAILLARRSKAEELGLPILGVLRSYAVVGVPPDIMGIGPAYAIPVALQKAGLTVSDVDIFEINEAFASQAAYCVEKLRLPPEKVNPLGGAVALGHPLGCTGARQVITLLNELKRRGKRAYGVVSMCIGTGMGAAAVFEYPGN
UniProt Q9BTE6: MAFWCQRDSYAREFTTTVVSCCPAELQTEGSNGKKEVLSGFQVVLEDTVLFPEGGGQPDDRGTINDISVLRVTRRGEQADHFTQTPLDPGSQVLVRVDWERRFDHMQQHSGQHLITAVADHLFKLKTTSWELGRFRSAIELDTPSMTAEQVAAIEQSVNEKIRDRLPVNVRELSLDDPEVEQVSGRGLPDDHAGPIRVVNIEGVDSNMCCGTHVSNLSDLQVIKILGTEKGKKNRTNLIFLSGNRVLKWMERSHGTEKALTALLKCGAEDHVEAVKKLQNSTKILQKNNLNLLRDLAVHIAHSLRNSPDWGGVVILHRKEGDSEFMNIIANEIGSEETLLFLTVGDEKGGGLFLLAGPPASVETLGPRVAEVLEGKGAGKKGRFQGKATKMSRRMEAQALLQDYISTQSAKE
UniProt Q15057: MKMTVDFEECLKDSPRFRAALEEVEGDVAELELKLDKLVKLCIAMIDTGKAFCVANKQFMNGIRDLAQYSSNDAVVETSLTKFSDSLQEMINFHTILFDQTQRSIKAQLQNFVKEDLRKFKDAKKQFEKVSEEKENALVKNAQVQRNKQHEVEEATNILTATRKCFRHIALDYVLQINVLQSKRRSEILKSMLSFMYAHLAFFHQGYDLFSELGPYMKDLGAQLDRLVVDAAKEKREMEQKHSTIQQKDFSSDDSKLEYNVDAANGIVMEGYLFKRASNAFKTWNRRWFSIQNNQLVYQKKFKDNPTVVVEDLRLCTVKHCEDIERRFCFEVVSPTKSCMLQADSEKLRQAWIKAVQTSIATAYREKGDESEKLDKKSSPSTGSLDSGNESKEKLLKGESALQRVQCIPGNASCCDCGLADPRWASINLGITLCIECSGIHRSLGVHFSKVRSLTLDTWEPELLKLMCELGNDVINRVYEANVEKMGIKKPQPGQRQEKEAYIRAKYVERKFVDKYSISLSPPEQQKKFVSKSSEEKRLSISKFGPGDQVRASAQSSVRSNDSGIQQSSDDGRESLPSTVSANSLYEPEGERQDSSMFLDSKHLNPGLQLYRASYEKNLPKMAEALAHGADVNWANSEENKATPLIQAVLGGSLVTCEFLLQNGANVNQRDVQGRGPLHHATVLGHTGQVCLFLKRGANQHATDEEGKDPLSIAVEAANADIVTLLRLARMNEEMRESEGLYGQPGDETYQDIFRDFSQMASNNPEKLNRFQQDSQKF
UniProt P01023, whole entry: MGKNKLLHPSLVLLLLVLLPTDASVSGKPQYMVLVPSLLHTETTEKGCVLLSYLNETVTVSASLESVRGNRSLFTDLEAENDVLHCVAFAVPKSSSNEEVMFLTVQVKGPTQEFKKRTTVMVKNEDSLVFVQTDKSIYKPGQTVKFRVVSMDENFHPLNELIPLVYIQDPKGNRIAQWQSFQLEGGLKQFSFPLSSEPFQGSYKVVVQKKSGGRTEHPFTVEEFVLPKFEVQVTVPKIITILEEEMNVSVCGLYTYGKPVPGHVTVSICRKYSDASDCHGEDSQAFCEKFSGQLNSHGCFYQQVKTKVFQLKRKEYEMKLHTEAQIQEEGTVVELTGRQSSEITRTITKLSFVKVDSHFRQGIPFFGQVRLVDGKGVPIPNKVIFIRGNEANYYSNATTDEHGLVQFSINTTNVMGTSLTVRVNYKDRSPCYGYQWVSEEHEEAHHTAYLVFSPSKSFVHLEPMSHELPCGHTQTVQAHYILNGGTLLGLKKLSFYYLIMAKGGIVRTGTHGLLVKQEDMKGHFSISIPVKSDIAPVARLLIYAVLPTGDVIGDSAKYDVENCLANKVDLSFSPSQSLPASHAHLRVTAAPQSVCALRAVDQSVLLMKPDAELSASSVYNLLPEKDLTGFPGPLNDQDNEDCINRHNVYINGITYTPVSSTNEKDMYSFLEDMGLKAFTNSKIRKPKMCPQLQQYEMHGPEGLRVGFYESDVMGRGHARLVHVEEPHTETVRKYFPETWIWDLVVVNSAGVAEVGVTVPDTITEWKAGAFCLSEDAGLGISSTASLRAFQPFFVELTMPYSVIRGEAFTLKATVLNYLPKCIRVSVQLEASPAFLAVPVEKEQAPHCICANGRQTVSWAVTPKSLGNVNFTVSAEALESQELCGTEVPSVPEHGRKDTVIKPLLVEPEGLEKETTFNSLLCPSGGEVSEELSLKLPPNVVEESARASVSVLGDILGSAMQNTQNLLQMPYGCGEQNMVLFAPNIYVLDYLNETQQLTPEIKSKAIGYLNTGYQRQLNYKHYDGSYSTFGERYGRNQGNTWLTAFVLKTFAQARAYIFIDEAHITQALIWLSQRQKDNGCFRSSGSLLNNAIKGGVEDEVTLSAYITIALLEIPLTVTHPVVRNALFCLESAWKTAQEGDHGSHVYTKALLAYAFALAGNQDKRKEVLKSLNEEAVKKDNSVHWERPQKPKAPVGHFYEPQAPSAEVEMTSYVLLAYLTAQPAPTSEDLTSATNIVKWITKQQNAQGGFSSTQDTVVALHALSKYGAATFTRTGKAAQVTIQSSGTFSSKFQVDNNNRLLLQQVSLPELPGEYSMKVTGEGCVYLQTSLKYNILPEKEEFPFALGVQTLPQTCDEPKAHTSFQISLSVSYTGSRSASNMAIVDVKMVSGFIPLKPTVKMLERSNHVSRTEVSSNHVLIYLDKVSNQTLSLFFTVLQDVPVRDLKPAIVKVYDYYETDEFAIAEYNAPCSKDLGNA
UniProt Q8IZP0: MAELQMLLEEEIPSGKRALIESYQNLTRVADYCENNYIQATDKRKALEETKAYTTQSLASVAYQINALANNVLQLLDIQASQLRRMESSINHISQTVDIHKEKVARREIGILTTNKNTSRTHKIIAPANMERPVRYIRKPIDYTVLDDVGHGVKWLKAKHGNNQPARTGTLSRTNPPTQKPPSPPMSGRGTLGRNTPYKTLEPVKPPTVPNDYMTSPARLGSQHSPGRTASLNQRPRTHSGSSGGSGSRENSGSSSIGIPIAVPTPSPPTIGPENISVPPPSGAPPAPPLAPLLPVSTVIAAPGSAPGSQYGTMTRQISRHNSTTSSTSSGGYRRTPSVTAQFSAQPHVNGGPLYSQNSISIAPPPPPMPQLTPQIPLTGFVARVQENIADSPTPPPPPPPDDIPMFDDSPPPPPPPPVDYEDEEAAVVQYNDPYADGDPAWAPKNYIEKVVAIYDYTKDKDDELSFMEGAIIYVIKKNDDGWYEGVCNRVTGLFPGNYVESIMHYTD
UniProt Q9NRN7: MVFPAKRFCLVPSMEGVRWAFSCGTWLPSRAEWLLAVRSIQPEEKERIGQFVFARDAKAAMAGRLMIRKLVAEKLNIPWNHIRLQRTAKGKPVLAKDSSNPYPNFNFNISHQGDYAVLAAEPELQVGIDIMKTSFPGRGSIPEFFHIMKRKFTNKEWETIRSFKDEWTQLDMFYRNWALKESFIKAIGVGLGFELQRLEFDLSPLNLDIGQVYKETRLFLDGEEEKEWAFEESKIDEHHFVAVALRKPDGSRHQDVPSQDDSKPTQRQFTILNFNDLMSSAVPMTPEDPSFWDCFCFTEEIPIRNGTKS
UniProt Q8NFV4: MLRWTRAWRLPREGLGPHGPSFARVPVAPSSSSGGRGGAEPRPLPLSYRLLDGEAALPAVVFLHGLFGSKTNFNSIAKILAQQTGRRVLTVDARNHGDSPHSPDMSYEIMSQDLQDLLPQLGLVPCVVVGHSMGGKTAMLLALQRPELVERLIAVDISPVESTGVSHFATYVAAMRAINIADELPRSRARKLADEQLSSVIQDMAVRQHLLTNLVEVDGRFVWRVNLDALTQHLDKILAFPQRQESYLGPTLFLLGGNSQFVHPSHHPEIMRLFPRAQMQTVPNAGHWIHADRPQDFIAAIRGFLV
UniProt O14639: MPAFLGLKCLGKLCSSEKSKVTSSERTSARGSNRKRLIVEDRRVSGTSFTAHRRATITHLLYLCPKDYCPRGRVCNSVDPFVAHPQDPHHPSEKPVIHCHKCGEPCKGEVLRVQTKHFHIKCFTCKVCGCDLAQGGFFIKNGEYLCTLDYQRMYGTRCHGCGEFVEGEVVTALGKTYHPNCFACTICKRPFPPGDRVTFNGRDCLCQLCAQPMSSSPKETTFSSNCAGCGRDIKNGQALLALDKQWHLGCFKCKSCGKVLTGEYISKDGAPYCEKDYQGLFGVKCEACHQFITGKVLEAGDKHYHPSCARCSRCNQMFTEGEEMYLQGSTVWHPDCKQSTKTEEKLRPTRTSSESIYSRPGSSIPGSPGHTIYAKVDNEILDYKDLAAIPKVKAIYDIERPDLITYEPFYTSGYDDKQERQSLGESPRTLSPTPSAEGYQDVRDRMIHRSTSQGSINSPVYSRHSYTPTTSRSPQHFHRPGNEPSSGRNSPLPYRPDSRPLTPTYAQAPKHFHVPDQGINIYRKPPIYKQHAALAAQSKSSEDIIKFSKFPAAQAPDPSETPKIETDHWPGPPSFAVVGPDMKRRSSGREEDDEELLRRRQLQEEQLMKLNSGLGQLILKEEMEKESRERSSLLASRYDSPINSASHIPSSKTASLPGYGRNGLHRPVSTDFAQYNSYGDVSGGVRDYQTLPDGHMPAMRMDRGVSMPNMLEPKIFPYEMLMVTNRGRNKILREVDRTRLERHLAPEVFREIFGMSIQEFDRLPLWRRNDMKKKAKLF
UniProt Q9BVM4: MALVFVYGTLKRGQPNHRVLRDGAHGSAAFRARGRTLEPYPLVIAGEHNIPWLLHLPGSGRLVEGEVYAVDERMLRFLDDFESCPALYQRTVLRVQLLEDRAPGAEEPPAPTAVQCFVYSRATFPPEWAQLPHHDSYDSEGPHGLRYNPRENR
UniProt P28288: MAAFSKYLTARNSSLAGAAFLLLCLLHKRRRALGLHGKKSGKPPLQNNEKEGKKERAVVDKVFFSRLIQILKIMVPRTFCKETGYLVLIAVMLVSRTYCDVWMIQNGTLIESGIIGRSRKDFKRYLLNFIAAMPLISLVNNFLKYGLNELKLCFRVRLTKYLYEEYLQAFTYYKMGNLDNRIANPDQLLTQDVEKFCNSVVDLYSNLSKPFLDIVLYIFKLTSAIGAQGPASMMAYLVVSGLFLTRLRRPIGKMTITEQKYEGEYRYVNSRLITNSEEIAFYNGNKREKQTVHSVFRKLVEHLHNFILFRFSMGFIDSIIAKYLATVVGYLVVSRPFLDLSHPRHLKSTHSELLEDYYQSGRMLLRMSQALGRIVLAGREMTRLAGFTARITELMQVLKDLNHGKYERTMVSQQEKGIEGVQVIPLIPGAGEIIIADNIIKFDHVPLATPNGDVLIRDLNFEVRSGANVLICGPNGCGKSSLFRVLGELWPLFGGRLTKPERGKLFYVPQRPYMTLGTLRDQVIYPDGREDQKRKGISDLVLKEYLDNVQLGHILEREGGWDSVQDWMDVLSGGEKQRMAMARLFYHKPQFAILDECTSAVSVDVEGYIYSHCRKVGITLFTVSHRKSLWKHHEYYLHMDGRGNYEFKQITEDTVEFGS
UniProt A8MTT3: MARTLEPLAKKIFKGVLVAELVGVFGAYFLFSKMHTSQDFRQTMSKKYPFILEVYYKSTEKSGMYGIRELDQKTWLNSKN
UniProt Q9NUQ8: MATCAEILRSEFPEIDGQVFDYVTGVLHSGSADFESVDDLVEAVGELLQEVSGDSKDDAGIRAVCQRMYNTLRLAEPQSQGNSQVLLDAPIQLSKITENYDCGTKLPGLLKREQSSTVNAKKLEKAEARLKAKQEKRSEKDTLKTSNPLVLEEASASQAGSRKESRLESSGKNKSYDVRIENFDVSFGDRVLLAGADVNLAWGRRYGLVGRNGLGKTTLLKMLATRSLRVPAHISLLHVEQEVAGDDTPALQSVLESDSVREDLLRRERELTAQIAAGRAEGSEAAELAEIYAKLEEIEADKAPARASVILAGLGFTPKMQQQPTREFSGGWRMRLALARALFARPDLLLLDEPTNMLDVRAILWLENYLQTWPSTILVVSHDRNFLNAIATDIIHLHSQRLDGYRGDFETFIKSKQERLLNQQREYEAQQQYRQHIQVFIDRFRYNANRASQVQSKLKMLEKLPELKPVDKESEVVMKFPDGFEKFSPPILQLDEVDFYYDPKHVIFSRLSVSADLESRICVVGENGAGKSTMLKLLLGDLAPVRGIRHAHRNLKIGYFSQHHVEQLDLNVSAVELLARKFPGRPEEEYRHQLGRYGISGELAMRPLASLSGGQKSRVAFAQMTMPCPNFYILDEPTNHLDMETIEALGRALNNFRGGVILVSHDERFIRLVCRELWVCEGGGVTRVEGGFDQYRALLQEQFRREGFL

Some of the results follow.

Compound in this test: COc1ccc(Cn2ccc3ccc(C(=O)NO)cc32)cc1
In words: dose-dependent thermal stabilisation call (2D-TPP, DLPTP, 10% FDR) (binary (1 = stabilised)); higher = stabilised by the compound. Conditions: system: HL-60 intact cells; concentration range 0.04-10 µM.
With ACAA1 (UniProt P09110), the “dose-dependent thermal stabilisation call” value was inactive: 0.

For the target ABL2 (UniProt P42684), the “dose-dependent thermal stabilisation call” value is inactive: 0.

For ABCB7 (UniProt O75027), the “dose-dependent thermal stabilisation call” value is inactive: 0.

Turning to AAAS (UniProt Q9NRG9), the “dose-dependent thermal stabilisation call” value was inactive: 0.

For 49 KDA PROTEIN., the “dose-dependent thermal stabilisation call” value was inactive: 0.

In the case of AARSD1 (UniProt Q9BTE6), the “dose-dependent thermal stabilisation call” value is inactive: 0.

On to ABCB10 (UniProt Q9NRK6), for which the “dose-dependent thermal stabilisation call” value is inactive: 0.

Regarding ACAP1 (UniProt Q15027), the “dose-dependent thermal stabilisation call” value is inactive: 0.

In the case of ACAP2 (UniProt Q15057), the “dose-dependent thermal stabilisation call” value is inactive: 0.

A2M (UniProt P01023): the “dose-dependent thermal stabilisation call” value was inactive: 0.

With ABCA2 (UniProt Q9BZC7), the “dose-dependent thermal stabilisation call” value is inactive: 0.

For the target AARS (UniProt P49588), the “dose-dependent thermal stabilisation call” value is inactive: 0.

Regarding ABI1 (UniProt Q8IZP0), the “dose-dependent thermal stabilisation call” value is inactive: 0.

On to ABR (UniProt Q12979), for which the “dose-dependent thermal stabilisation call” value was inactive: 0.

On to ACAD11 (UniProt Q709F0), for which the “dose-dependent thermal stabilisation call” value is inactive: 0.

As to AACS (UniProt Q86V21), the “dose-dependent thermal stabilisation call” value was inactive: 0.

As for AAK1 (UniProt Q2M2I8), the “dose-dependent thermal stabilisation call” value is inactive: 0.

For ABCD1 (UniProt P33897), the “dose-dependent thermal stabilisation call” value is inactive: 0.

Take AASDHPPT (UniProt Q9NRN7): the “dose-dependent thermal stabilisation call” value was inactive: 0.

On to ACACA (UniProt Q13085), for which the “dose-dependent thermal stabilisation call” value was inactive: 0.

ABHD11 (UniProt Q8NFV4): the “dose-dependent thermal stabilisation call” value is inactive: 0.

As to ABLIM1 (UniProt O14639), the “dose-dependent thermal stabilisation call” value was inactive: 0.

For ACADSB (UniProt P45954), the “dose-dependent thermal stabilisation call” value is inactive: 0.

With ABI2 (UniProt Q9NYB9), the “dose-dependent thermal stabilisation call” value was inactive: 0.

On to ABCC4 (UniProt O15439), for which the “dose-dependent thermal stabilisation call” value was inactive: 0.

For ABHD13 (UniProt Q7L211), the “dose-dependent thermal stabilisation call” value was inactive: 0.

Consider ABHD10 (UniProt Q9NUJ1), for which the “dose-dependent thermal stabilisation call” value was inactive: 0.

Turning to ABCB8 (UniProt Q9NUT2), the “dose-dependent thermal stabilisation call” value was inactive: 0.

Take ABHD6 (UniProt Q9BV23): the “dose-dependent thermal stabilisation call” value was inactive: 0.

A2LD1 (UniProt Q9BVM4): the “dose-dependent thermal stabilisation call” value was inactive: 0.

ABCD3 (UniProt P28288): the “dose-dependent thermal stabilisation call” value is inactive: 0.

As for AADACL1 (UniProt Q6PIU2), the “dose-dependent thermal stabilisation call” value is inactive: 0.

Turning to ABCC1 (UniProt P33527), the “dose-dependent thermal stabilisation call” value is inactive: 0.

With ABCF2 (UniProt Q9UG63), the “dose-dependent thermal stabilisation call” value is inactive: 0.

Turning to CEBPZOS HUMAN (UniProt A8MTT3), the “dose-dependent thermal stabilisation call” value is inactive: 0.

With ABCF3 (UniProt Q9NUQ8), the “dose-dependent thermal stabilisation call” value is inactive: 0.
